The target in this assay is GFP‐TIMP‐1 (human) (UniProt P01033). The assay can be described thus: co-IP; DLD‐1 wt and DLD‐1 G13D cells transfected with GFP or GFP‐TIMP‐1 24 h prior to lysis; lysates precipitated with GFP‐TRAPs; western blot for TIMP‐1 and c‐Kit.

By UniProt entry, the sequences of proteins in these tests, tags left out. Residues count along the entry.
UniProt P01033, residues 24-207: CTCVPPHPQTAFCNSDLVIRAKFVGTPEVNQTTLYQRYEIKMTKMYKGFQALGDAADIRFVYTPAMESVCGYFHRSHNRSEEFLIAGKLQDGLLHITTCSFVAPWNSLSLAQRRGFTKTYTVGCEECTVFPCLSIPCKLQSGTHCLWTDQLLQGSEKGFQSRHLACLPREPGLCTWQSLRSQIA
UniProt P10721, residues 26-976: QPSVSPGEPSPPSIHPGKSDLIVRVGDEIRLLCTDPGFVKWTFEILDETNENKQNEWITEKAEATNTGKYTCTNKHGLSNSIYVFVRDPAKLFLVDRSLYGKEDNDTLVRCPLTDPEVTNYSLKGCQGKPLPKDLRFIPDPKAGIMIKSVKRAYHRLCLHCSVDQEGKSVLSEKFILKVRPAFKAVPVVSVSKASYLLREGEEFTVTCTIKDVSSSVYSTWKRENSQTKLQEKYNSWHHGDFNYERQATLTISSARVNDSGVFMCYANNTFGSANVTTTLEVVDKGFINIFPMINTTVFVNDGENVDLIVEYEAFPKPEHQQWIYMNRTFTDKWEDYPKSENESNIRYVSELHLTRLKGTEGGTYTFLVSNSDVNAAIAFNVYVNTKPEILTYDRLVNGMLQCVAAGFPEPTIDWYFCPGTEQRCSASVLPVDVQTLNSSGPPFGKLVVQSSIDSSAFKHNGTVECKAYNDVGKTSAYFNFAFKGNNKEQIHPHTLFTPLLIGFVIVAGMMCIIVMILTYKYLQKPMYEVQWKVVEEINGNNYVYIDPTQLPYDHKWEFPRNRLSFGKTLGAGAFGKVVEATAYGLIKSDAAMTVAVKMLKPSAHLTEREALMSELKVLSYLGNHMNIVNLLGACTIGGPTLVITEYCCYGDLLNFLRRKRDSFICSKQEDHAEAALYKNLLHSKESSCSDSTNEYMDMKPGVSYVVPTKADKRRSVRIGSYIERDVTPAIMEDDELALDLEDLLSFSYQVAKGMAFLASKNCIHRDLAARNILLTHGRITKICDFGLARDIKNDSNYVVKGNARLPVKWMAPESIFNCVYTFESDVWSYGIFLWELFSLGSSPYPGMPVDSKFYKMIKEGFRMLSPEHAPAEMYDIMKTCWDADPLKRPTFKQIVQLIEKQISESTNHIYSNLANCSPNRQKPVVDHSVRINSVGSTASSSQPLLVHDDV

No constants are given. Whether binding was seen depends on the method and setting. In cells and extracts the contact can be indirect.

As for “receptor tyrosine kinase c‐Kit (endogenous in DLD‐1 cells) (from UniProt P10721 26-976)”, the binding entry was “no binding”.

These data come from publication PMC6887592.
